Results taken from patent US5095005A, “Polypeptide and antibacterial preparations containing the same” (Morinaga Milk Industry Co., Ltd., priority 1989, dated 1992).
Not every detail of the peptide structures is certain; ends, links or a residue may be inferred. Bridge positions count the residues as written; N and C are the ends. Ends that are not written are not given here.

Legend:
Escherichia coli 1-111 = experiment: Test 3 bacterial growth inhibition in MRS broth (turbidity at 660 nm); assay type: cell-based; settings: 37° C., 10 hours
Salmonella infantis = experiment: as above; assay type: cell-based; settings: 37° C., 10 hours
Salmonella typi-murium = experiment: as above; assay type: cell-based; settings: 37° C., 10 hours
Bacteroides vulgatus = experiment: as above; assay type: cell-based; settings: 37° C., 10 hours
Bacteroides fragilis = experiment: as above; assay type: cell-based; settings: 37° C., 10 hours
Klebsiclle pneumomiae = experiment: as above; assay type: cell-based; settings: 37° C., 10 hours
Candida albicans IID 867 = experiment: as above; assay type: cell-based; settings: 37° C., 10 hours
Campylobacter jejiuni = experiment: as above; assay type: cell-based; settings: 37° C., 10 hours
Eubacterium aerofaciens = experiment: as above; assay type: cell-based; settings: 37° C., 10 hours
Corynebacterium = experiment: as above; assay type: cell-based; settings: for bacterial growth inhibition: 37° C., 10 hours
[1] = system: Lactobacillus leichmannii ATCC 7830; experiment: as above; assay type: cell-based; settings: 37° C., 10 hours
[2] = system: Lactobacillus helveticus ATCC 8018; experiment: as above; assay type: cell-based; settings: for bacterial growth inhibition: 37° C., 10 hours
[3] = system: Lactobacillus bulgaricus ATCC 11841; experiment: as above; assay type: cell-based; settings: for bacterial growth inhibition: 37° C., 10 hours
[4] = system: Lactobacillus lactis ATCC 8000; experiment: as above; assay type: cell-based; settings: for bacterial growth inhibition: 37° C., 10 hours
[5] = system: Lactobacillus casei ATCC 393; experiment: as above; assay type: cell-based; settings: 37° C., 10 hours
[6] = system: Lactobacillus plantarum ATCC 14917; experiment: as above; assay type: cell-based; settings: 37° C., 10 hours
[7] = system: Lactobacillus delbrueckii IAM 1085; experiment: as above; assay type: cell-based; settings: 37° C., 10 hours
[8] = system: Lactobacillus fermentum 4061 II-87; experiment: as above; assay type: cell-based; settings: 37° C., 10 hours
[9] = system: Lactobacillus sarivarius ATCC 11742; experiment: as above; assay type: cell-based; settings: 37° C., 10 hours
[10] = system: Lactobacillus acidophilus ATCC 341; experiment: as above; assay type: cell-based; settings: 37° C., 10 hours
Streptococcus faecalis = experiment: as above; assay type: cell-based; settings: 37° C., 10 hours
Streptococcus cremoris = experiment: as above; assay type: cell-based; settings: for bacterial growth inhibition: 37° C., 10 hours
[11] = system: Streptococcus lactis ss diacetilactis; experiment: as above; assay type: cell-based; settings: 37° C., 10 hours
[12] = system: Streptococcus lactis ATCC 19435; experiment: as above; assay type: cell-based; settings: 37° C., 10 hours
[13] = system: Streptococcus thermophilus ATCC 19258; experiment: as above; assay type: cell-based; settings: for bacterial growth inhibition: 37° C., 10 hours
[14] = system: Leuconostoc cremoris ATCC 19254; experiment: as above; assay type: cell-based; settings: for bacterial growth inhibition: 37° C., 10 hours
[15] = system: Bacilus cremoris IAM 1073; experiment: as above; assay type: cell-based; settings: 37° C., 10 hours
[16] = system: Bacillus licheniformis IAM 11054; experiment: as above; assay type: cell-based; settings: 37° C., 10 hours
[17] = system: Lactobacillus helveticus ss jugurti; experiment: Heat stability of antibacterial activity (growth inhibition in MRS broth); assay type: cell-based; settings: after heating for 15 minutes at 100° C.
[18] = system: Lactobacillus helveticus ss jugurti; experiment: Test 3 bacterial growth inhibition in MRS broth (turbidity at 660 nm); settings: for bacterial growth inhibition: 37° C., 10 hours

Sequence: VTCDLLSFKGQVNDSACAANCLSLGKAGGHCEKGVCICRKTSFKDLWDKYF (disulfide 3-31, 17-36, 21-38) [polypeptide]
- bacterial growth inhibition (Escherichia coli 1-111; concentration 0.01 μM): - (-: 0-20%)
- bacterial growth inhibition (Escherichia coli 1-111; concentration 0.1 μM): - (-: 0-20%)
- bacterial growth inhibition (Escherichia coli 1-111; concentration 1 μM): - (-: 0-20%)
- bacterial growth inhibition (Salmonella infantis; concentration 0.01 μM): - (-: 0-20%)
- bacterial growth inhibition (Salmonella infantis; concentration 0.1 μM): - (-: 0-20%)
- bacterial growth inhibition (Salmonella infantis; concentration 1 μM): - (-: 0-20%)
- bacterial growth inhibition (Salmonella typi-murium; concentration 0.01 μM): - (-: 0-20%)
- bacterial growth inhibition (Salmonella typi-murium; concentration 0.1 μM): - (-: 0-20%)
- bacterial growth inhibition (Salmonella typi-murium; concentration 1 μM): - (-: 0-20%)
- bacterial growth inhibition (Bacteroides vulgatus; concentration 0.01 μM): - (-: 0-20%)
- bacterial growth inhibition (Bacteroides vulgatus; concentration 0.1 μM): - (-: 0-20%)
- bacterial growth inhibition (Bacteroides vulgatus; concentration 1 μM): - (-: 0-20%)
- bacterial growth inhibition (Bacteroides fragilis; concentration 0.01 μM): - (-: 0-20%)
- bacterial growth inhibition (Bacteroides fragilis; concentration 0.1 μM): - (-: 0-20%)
- bacterial growth inhibition (Bacteroides fragilis; concentration 1 μM): - (-: 0-20%)
- bacterial growth inhibition (Klebsiclle pneumomiae; concentration 0.01 μM): - (-: 0-20%)
- bacterial growth inhibition (Klebsiclle pneumomiae; concentration 0.1 μM): - (-: 0-20%)
- bacterial growth inhibition (Klebsiclle pneumomiae; concentration 1 μM): - (-: 0-20%)
- bacterial growth inhibition (Candida albicans IID 867; concentration 0.01 μM): - (-: 0-20%)
- bacterial growth inhibition (Candida albicans IID 867; concentration 0.1 μM): - (-: 0-20%)
- bacterial growth inhibition (Candida albicans IID 867; concentration 1 μM): - (-: 0-20%)
- bacterial growth inhibition (Campylobacter jejiuni; concentration 0.01 μM): - (-: 0-20%)
- bacterial growth inhibition (Campylobacter jejiuni; concentration 0.1 μM): - (-: 0-20%)
- bacterial growth inhibition (Campylobacter jejiuni; concentration 1 μM): - (-: 0-20%)
- bacterial growth inhibition (Eubacterium aerofaciens; concentration 0.01 μM): - (-: 0-20%)
- bacterial growth inhibition (Eubacterium aerofaciens; concentration 0.1 μM): - (-: 0-20%)
- bacterial growth inhibition (Eubacterium aerofaciens; concentration 1 μM): - (-: 0-20%)
- bacterial growth inhibition (Corynebacterium; concentration 0.01 μM): - (-: 0-20%)
- bacterial growth inhibition (Corynebacterium; concentration 0.1 μM): ± (±: 21-40%)
- bacterial growth inhibition (Corynebacterium; concentration 1 μM): +++ (+++: 81-100%)
- growth inhibitory effect (Corynebacterium; text: Corynebacterium, concentration of 1 μM): growth inhibitory effect was observed strongly
- bacterial growth inhibition ([1]; concentration 0.01 μM): - (-: 0-20%)
- bacterial growth inhibition ([1]; concentration 0.1 μM): +++ (+++: 81-100%)
- bacterial growth inhibition ([1]; concentration 1 μM): +++ (+++: 81-100%)
- bacterial growth inhibition ([2]; concentration 0.01 μM): - (-: 0-20%)
- bacterial growth inhibition ([2]; concentration 0.1 μM): +++ (+++: 81-100%)
- bacterial growth inhibition ([2]; concentration 1 μM): +++ (+++: 81-100%)
- inhibited the growth ([2]; text: L. helveticus, effective concentration of 0.1 μM): > 50%
- bacterial growth inhibition ([3]; concentration 0.01 μM): ± (±: 21-40%)
- bacterial growth inhibition ([3]; concentration 0.1 μM): +++ (+++: 81-100%)
- bacterial growth inhibition ([3]; concentration 1 μM): +++ (+++: 81-100%)
- inhibited the growth ([3]; text: L. bulgaricus, effective concentration of 0.1 μM): > 50%
- bacterial growth inhibition ([4]; concentration 0.01 μM): + (+: 41-60%)
- bacterial growth inhibition ([4]; concentration 0.1 μM): +++ (+++: 81-100%)
- bacterial growth inhibition ([4]; concentration 1 μM): +++ (+++: 81-100%)
- inhibited the growth ([4]; text: Lactobacillus lactis, effective concentration of 0.1 μM): > 50%
- bacterial growth inhibition ([5]; concentration 0.01 μM): - (-: 0-20%)
- bacterial growth inhibition ([5]; concentration 0.1 μM): - (-: 0-20%)
- bacterial growth inhibition ([5]; concentration 1 μM): - (-: 0-20%)
- bacterial growth inhibition ([6]; concentration 0.01 μM): - (-: 0-20%)
- bacterial growth inhibition ([6]; concentration 0.1 μM): - (-: 0-20%)
- bacterial growth inhibition ([6]; concentration 1 μM): - (-: 0-20%)
- bacterial growth inhibition ([7]; concentration 0.01 μM): - (-: 0-20%)
- bacterial growth inhibition ([7]; concentration 0.1 μM): - (-: 0-20%)
- bacterial growth inhibition ([7]; concentration 1 μM): - (-: 0-20%)
- bacterial growth inhibition ([8]; concentration 0.01 μM): - (-: 0-20%)
- bacterial growth inhibition ([8]; concentration 0.1 μM): - (-: 0-20%)
- bacterial growth inhibition ([8]; concentration 1 μM): - (-: 0-20%)
- bacterial growth inhibition ([9]; concentration 0.01 μM): - (-: 0-20%)
- bacterial growth inhibition ([9]; concentration 0.1 μM): - (-: 0-20%)
- bacterial growth inhibition ([9]; concentration 1 μM): - (-: 0-20%)
- bacterial growth inhibition ([10]; concentration 0.01 μM): - (-: 0-20%)
- bacterial growth inhibition ([10]; concentration 0.1 μM): - (-: 0-20%)
- bacterial growth inhibition ([10]; concentration 1 μM): + (+: 41-60%)
- bacterial growth inhibition (Streptococcus faecalis; concentration 0.01 μM): - (-: 0-20%)
- bacterial growth inhibition (Streptococcus faecalis; concentration 0.1 μM): - (-: 0-20%)
- bacterial growth inhibition (Streptococcus faecalis; concentration 1 μM): - (-: 0-20%)
- bacterial growth inhibition (Streptococcus cremoris; concentration 0.01 μM): - (-: 0-20%)
- bacterial growth inhibition (Streptococcus cremoris; concentration 0.1 μM): - (-: 0-20%)
- bacterial growth inhibition (Streptococcus cremoris; concentration 1 μM): +++ (+++: 81-100%)
- growth inhibitory effect (Streptococcus cremoris; text: Streptococcus cremoris, concentration of 1 μM): growth inhibitory effect was observed strongly
- bacterial growth inhibition ([11]; concentration 0.01 μM): - (-: 0-20%)
- bacterial growth inhibition ([11]; concentration 0.1 μM): - (-: 0-20%)
- bacterial growth inhibition ([11]; concentration 1 μM): - (-: 0-20%)
- bacterial growth inhibition ([12]; concentration 0.01 μM): - (-: 0-20%)
- bacterial growth inhibition ([12]; concentration 0.1 μM): - (-: 0-20%)
- bacterial growth inhibition ([12]; concentration 1 μM): - (-: 0-20%)
- bacterial growth inhibition ([13]; concentration 0.01 μM): - (-: 0-20%)
- bacterial growth inhibition ([13]; concentration 0.1 μM): - (-: 0-20%)
- bacterial growth inhibition ([13]; concentration 1 μM): +++ (+++: 81-100%)
- growth inhibitory effect ([13]; text: Streptococcus thermophilus, concentration of 1 μM): growth inhibitory effect was observed strongly
- bacterial growth inhibition ([14]; concentration 0.01 μM): - (-: 0-20%)
- bacterial growth inhibition ([14]; concentration 0.1 μM): +++ (+++: 81-100%)
- bacterial growth inhibition ([14]; concentration 1 μM): +++ (+++: 81-100%)
- inhibited the growth ([14]; text: Leuconostock cremoris, effective concentration of 0.1 μM): > 50%
- bacterial growth inhibition ([15]; concentration 0.01 μM): - (-: 0-20%)
- bacterial growth inhibition ([15]; concentration 0.1 μM): - (-: 0-20%)
- bacterial growth inhibition ([15]; concentration 1 μM): - (-: 0-20%)
- bacterial growth inhibition ([16]; concentration 0.01 μM): - (-: 0-20%)
- bacterial growth inhibition ([16]; concentration 0.1 μM): - (-: 0-20%)
- bacterial growth inhibition ([16]; concentration 1 μM): - (-: 0-20%)
- heat stability of antibacterial activity [17]: activity was retained
- growth inhibitory effect compared with Test 3 ([18]; Examples 1 and 2, same manner as in Test 3): essentially similar results to Test 3
- antibacterial activity of chromatography fractions (growth inhibition) ([18]; Test 1, fractions from Sephadex G-100 or reverse-phase HPLC): potent antibacterial activity
- bacterial growth inhibition ([18]; concentration 0.01 μM): ± (±: 21-40%)
- bacterial growth inhibition ([18]; concentration 0.1 μM): +++ (+++: 81-100%)
- bacterial growth inhibition ([18]; concentration 1 μM): +++ (+++: 81-100%)
